The nature of the data set: Compound precipitation observed during the proline incorporation assay. The format is physicochemical. Particulars: @ 30 & 100 uM. How it is done: Cells were plated into 24-well culture dishes in DMEM/5% FBS and allowed to adhere overnight. The subconfluent cells were then starved overnight in DMEM/0.1% FBS and 150 uM L-ascorbic acid, prior to pre-treatment with or without FibroTech compounds for 4 hours at 10, 30 or 100 uM in 0.1% DMSO, final concentration. TGF-beta 1 at 5 ng/mL (Peprotech) and tritiated proline (Perkin-Elmer, (2,3,4,5-^3H)-proline) at 1 uCi/mL were added and the incubation continued for a further 44 hours. Treatments were performed in triplicate.

Consider `O=c1oc(/C=C/c2ccc(OC(F)F)c(OC(F)F)c2)nc2ccccc12` [FT108, (E)-2-(3,4-Bis(difluoromethoxy)styryl)-4H-benzo[d][1,3]oxazin-4-one], for which the “Patches observed in culture” value was “yellow jellylike”.
Next, `C#CCOc1ccc(/C=C/c2nc3ccccc3c(=O)o2)cc1OC` [FT107, (E)-2-(3-Methoxy-4-propargyloxystyryl)-4H-benzo[d][1,3]oxazin-4-one]: “yellow floating”.

Values taken from patent publication US9951087B2, “Fused ring analogues of anti-fibrotic agents” (Fibrotech Therapeutics PTY LTD, priority 2009, dated 2018).
